Results published in the supplement of paper PMC10849652.
This is one part of the list.

Amino acid sequences for entries named in this document (tags omitted). A change or cut given only in a name is not applied to a line headed by its entry.
UniProt Q8TB72: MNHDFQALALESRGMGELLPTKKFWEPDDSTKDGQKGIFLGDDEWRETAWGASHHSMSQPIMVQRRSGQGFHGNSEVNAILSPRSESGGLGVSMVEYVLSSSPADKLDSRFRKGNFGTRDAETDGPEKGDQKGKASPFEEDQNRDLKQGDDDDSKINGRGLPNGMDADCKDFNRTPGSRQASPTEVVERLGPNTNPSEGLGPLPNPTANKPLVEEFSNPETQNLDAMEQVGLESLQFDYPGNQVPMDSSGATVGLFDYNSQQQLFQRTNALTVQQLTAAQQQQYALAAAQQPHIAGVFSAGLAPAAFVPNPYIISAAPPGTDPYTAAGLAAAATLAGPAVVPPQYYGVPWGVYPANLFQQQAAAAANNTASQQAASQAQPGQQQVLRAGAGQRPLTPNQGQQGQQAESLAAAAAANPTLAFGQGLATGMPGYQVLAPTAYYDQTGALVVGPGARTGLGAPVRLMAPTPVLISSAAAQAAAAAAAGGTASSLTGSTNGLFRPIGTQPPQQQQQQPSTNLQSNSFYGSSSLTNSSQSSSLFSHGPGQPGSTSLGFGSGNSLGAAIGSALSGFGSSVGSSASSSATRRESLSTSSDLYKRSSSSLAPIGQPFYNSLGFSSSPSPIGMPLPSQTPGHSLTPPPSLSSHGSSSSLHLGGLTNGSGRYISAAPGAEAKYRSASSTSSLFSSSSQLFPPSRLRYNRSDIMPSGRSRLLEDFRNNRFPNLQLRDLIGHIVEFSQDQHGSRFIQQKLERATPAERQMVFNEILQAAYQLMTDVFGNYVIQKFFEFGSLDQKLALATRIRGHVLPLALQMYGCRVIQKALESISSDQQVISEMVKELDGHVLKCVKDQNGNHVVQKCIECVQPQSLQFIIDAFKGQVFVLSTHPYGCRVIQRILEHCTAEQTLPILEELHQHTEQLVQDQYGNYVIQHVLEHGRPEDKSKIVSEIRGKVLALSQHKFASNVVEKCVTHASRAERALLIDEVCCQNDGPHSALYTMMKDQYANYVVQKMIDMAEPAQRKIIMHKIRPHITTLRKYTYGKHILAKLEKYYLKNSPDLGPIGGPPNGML
UniProt P35236: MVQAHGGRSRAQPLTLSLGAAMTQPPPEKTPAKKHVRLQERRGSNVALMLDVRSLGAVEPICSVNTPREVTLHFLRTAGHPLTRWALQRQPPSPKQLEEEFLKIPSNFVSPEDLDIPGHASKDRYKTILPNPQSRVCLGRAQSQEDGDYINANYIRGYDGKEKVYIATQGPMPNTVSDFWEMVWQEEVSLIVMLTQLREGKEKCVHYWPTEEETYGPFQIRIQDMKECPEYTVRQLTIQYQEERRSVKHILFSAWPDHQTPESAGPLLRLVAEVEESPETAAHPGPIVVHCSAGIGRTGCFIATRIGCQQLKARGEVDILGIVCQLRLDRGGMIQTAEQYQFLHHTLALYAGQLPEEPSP
UniProt Q8NDX1: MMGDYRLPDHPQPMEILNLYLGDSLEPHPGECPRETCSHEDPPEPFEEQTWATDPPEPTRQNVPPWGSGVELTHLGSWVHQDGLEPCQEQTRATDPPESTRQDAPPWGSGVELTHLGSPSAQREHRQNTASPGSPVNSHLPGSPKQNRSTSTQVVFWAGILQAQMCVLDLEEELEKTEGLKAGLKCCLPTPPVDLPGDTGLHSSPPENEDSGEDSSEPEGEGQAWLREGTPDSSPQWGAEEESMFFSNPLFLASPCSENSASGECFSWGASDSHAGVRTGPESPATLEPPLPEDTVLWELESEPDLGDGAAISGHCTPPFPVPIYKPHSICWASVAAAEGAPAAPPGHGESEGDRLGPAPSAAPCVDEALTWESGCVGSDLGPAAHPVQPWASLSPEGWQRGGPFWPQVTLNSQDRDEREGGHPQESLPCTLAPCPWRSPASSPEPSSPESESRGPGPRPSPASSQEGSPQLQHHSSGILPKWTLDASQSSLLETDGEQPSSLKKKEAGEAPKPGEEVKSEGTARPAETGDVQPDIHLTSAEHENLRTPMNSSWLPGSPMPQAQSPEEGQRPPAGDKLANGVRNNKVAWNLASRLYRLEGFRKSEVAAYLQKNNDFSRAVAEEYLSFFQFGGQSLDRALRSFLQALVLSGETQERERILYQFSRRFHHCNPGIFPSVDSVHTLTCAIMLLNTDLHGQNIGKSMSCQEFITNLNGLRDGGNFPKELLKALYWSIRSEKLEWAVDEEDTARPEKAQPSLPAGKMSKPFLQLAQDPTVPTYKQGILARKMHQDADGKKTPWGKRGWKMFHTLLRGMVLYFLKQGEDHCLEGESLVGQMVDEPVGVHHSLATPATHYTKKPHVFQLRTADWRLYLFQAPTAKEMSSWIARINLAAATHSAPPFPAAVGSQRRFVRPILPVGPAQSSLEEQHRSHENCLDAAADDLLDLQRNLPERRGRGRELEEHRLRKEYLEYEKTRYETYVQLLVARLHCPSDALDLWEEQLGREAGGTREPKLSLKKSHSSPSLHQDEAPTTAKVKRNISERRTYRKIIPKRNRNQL
UniProt Q9H3S7: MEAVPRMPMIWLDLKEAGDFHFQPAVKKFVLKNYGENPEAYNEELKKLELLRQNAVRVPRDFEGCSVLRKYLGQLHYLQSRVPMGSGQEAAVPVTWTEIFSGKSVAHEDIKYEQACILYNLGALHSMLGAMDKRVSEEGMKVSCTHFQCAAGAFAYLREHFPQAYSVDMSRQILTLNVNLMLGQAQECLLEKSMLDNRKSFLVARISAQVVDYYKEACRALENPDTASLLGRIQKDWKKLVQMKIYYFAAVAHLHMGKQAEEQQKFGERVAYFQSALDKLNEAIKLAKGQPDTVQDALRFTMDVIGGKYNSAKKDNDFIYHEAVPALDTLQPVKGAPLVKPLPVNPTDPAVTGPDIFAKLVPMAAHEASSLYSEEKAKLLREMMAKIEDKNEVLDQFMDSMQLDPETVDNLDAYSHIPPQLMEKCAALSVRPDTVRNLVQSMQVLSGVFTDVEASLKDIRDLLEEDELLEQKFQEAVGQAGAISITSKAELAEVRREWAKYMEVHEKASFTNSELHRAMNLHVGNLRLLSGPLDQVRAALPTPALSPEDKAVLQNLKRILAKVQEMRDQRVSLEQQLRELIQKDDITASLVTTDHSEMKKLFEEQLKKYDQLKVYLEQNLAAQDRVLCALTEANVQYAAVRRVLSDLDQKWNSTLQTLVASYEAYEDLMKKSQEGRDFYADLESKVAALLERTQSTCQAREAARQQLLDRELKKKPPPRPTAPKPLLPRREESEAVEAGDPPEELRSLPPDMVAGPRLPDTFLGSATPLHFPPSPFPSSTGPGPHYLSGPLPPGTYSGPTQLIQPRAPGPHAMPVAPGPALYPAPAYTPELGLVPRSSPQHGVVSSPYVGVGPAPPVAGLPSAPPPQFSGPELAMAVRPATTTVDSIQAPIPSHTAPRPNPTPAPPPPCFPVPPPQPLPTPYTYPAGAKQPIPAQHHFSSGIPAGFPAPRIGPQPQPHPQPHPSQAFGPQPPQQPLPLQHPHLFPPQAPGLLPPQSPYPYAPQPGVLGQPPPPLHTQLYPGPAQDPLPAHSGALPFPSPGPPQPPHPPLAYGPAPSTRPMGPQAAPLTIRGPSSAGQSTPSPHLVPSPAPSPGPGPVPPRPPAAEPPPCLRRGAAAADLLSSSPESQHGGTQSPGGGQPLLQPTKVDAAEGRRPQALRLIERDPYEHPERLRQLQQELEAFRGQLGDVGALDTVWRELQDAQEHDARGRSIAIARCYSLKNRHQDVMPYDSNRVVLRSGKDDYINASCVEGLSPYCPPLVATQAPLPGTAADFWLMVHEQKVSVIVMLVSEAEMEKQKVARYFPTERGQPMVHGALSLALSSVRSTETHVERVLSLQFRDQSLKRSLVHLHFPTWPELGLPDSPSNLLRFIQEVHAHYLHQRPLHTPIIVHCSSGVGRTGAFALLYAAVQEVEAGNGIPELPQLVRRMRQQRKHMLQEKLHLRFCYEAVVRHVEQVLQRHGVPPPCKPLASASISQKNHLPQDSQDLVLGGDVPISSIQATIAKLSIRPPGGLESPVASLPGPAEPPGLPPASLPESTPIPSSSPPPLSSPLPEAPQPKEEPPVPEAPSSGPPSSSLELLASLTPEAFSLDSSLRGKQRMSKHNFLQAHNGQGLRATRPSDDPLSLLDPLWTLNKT
UniProt P23219, whole entry, looked up: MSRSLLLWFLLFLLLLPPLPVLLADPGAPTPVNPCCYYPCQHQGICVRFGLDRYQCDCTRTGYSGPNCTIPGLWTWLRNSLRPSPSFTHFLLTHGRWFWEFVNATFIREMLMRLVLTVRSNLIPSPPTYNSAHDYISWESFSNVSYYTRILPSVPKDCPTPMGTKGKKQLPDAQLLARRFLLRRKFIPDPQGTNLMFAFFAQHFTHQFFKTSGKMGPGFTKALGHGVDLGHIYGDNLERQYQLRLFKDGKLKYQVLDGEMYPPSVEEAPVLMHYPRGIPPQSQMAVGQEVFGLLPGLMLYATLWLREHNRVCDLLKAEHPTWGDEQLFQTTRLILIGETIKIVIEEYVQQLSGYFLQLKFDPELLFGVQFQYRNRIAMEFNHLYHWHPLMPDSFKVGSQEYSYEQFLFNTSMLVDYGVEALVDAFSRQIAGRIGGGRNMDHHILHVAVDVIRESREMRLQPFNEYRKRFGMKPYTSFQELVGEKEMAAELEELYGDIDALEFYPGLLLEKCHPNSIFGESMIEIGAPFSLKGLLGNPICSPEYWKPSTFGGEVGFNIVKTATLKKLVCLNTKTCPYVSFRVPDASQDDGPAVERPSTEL
UniProt P17706: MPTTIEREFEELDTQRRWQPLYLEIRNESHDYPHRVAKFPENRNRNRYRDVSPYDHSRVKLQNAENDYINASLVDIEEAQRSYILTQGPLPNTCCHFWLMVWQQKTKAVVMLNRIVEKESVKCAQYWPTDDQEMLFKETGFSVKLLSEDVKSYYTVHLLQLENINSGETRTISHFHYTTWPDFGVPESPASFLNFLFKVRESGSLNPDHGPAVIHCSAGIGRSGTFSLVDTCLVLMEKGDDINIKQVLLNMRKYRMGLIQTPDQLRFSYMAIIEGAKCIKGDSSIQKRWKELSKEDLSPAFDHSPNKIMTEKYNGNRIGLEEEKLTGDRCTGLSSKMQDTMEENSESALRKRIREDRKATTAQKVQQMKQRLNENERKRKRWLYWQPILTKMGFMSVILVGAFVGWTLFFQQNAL
UniProt P62333, whole entry, looked up: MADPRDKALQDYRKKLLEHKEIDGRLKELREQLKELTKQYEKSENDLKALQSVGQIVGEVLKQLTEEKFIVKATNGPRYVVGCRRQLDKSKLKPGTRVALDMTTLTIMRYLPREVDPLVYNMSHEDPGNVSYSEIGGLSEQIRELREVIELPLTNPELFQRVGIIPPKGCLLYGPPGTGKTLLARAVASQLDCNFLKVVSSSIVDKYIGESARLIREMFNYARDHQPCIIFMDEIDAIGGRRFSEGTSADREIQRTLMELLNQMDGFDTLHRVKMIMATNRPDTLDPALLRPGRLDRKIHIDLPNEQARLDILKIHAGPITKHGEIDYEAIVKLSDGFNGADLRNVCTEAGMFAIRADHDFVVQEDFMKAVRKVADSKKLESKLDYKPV
UniProt P55036: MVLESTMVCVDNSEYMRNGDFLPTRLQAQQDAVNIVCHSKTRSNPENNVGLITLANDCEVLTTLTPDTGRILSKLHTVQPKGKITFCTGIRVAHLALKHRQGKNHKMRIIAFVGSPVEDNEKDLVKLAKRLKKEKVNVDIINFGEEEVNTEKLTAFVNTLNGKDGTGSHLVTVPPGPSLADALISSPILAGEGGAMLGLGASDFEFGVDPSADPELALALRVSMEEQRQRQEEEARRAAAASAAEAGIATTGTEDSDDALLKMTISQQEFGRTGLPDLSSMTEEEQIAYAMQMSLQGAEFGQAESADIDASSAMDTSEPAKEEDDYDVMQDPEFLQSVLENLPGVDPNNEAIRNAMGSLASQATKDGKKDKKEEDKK
UniProt Q9BT73: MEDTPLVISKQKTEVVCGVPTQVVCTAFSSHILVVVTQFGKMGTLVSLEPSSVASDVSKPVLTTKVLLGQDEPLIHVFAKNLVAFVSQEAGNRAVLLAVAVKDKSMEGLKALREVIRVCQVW
UniProt P62195, whole entry, looked up: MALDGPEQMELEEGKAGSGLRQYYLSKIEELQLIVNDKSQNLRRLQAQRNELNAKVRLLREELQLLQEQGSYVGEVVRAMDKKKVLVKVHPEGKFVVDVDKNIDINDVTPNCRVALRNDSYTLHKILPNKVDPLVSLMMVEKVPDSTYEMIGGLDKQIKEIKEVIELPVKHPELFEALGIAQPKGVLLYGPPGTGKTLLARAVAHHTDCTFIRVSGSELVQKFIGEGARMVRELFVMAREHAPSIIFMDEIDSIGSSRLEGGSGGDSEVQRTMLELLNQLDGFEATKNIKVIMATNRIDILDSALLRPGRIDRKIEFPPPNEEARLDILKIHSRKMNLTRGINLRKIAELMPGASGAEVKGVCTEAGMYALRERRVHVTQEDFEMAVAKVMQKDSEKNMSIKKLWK
UniProt Q5JS54: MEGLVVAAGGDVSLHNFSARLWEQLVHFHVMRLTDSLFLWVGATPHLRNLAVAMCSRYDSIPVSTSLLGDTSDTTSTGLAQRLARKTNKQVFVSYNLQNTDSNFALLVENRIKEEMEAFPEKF

Experiments:
Test in all cases: log2 fold change, soluble protein after heating vs DMSO (PISA); higher = thermal stabilisation; K562 lysate, 10 uM; active = over 0.2 and 3.5 SD of the protein, either way, in both replicates (recomputed)
erlotinib = compound: C#Cc1cccc(Nc2ncnc3cc(OCCOC)c(OCCOC)cc23)c1 [erlotinib]
Procedure, shortened: (§1)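 Thermal stability, expressed as log-two fold change relative to solvent controls, is given from duplicates. Crude K562 extract in PBS pH 7.4 with 1 mM MgCl2, at 1 mg/mL protein, was treated with 10 μM compound for 30 min and heated in aliquots for 3 min across 48°C-58°C. After pooling, adjustment to 0.5% NP-40 at 4°C and centrifugation at 21,000xg for 90 min, supernatant protein was measured by TMTpro 16plex LC-MS/MS with channel sums equalised.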

[1] = compound: C/C(=N\NC(=O)C1=CC(=CC=C1)S(=O)(=O)N2CCOCC2)/C3=C(C=CC(=C3)Cl)O
Procedure, shortened: as §1

[2] = compound: C1=CC(=CC=C1C2=NC3=C(N2)C=C(C=C3)C(=O)N)OC4=CC=C(C=C4)Cl
Procedure, shortened: as §1

[3] = compound: C1=CC2=C(C=CC(=C2)/C=C\3/C(=O)NC(=NCC4=CC=CS4)S3)N=C1
Procedure, shortened: as §1

[4] = compound: C1=CC2=NC=CN=C2C=C1/C=C/3\C(=O)NC(=O)S3
Procedure, shortened: as §1

[5] = compound: C1=CC=C(C=C1)C2=NC(=C(N2)C3=CC=NC=C3)C4=CC(=C(C=C4)Cl)O
Procedure, shortened: as §1

[6] = compound: C1=CC=C2C(=C1)C3=NNC4=CC=CC(=C43)C2=O
Procedure, shortened: as §1

[7] = compound: C1CCN(C1)C(=O)NC2=CC=CC(=C2)NC3=NC=C(C(=N3)NCCC4=CN=CN4)Br
Procedure, shortened: as §1

[8] = compound: C1CN(CCC1(CC2=CC=C(C=C2)Cl)N)C3=NC=NC4=C3C=CN4
Procedure, shortened: as §1

IRAK-1-4 Inhibitor I = compound: C1COCCN1CCN2C3=CC=CC=C3N=C2NC(=O)C4=CC(=CC=C4)[N+](=O)[O-] [IRAK-1-4 Inhibitor I]
Procedure, shortened: as §1

Measured: log2 fold change

PUM2 (UniProt Q8TB72)
inactive: erlotinib -0.069 | [1] -0.089 | [2] 0.119 | [3] -0.1 | [4] -0.052 | [5] -0.05 | [6] -0.246 | [7] -0.059 | [8] -0.051 | IRAK-1-4 Inhibitor I -0.167

PTDSS1 (UniProt P48651)
inactive: erlotinib -0.046 | [1] -0.031 | [2] -0.295 | [3] -0.111 | [4] -0.033 | [5] -0.117 | [6] -0.107 | [7] 0.036 | [8] 0.079 | IRAK-1-4 Inhibitor I 0.024

PUM3 (UniProt Q15397)
inactive: erlotinib 0.012 | [1] -0.013 | [2] 0.012 | [3] 0.049 | [4] -0.021 | [5] 0 | [6] 0.013 | [7] 0.074 | [8] 0.05 | IRAK-1-4 Inhibitor I 0.071

PTPN7 isoform 3 (UniProt P35236)
inactive: erlotinib 0.032 | [1] -0.002 | [2] -0.028 | [3] -0.06 | [4] -0.026 | [5] -0.008 | [6] -0.03 | [7] 0.009 | [8] 0.045 | IRAK-1-4 Inhibitor I 0.021

PSTPIP2 (UniProt Q9H939)
inactive: erlotinib 0.002 | [1] 0.05 | [2] -0.028 | [3] 0.055 | [4] -0.031 | [5] -0.003 | [6] -0.122 | [7] 0.01 | [8] 0.005 | IRAK-1-4 Inhibitor I 0.009

PTPRC (UniProt P08575)
inactive: erlotinib -0.003 | [1] 0.014 | [2] 0.015 | [3] 0 | [4] 0.013 | [5] 0.001 | [6] -0.034 | [7] 0 | [8] 0.023 | IRAK-1-4 Inhibitor I -0.003

PWP1 (UniProt Q13610)
inactive: erlotinib -0.02 | [1] -0.025 | [2] 0.045 | [3] 0.057 | [4] 0.007 | [5] 0 | [6] 0.031 | [7] 0.008 | [8] -0.032 | IRAK-1-4 Inhibitor I 0.005

PSD4 (UniProt Q8NDX1)
inactive: erlotinib 0 | [1] -0.073 | [2] -0.026 | [3] 0.015 | [4] -0.022 | [5] -0.027 | [6] -0.033 | [7] 0.016 | [8] -0.007 | IRAK-1-4 Inhibitor I -0.024

2 records picked at random from the list so far, as already listed:
PSTPIP2 (UniProt Q9H939)
inactive: erlotinib 0.002 | [1] 0.05 | [2] -0.028 | [3] 0.055 | [4] -0.031 | [5] -0.003 | [6] -0.122 | [7] 0.01 | [8] 0.005 | IRAK-1-4 Inhibitor I 0.009

PTPRC (UniProt P08575)
inactive: erlotinib -0.003 | [1] 0.014 | [2] 0.015 | [3] 0 | [4] 0.013 | [5] 0.001 | [6] -0.034 | [7] 0 | [8] 0.023 | IRAK-1-4 Inhibitor I -0.003

Following part:

PRPS2 isoform 2 (UniProt P11908)
inactive: erlotinib 0 | [1] 0.005 | [2] -0.039 | [3] -0.028 | [4] 0.025 | [5] -0.006 | [6] 0.024 | [7] 0.002 | [8] 0.016 | IRAK-1-4 Inhibitor I 0.007

PTCD3 (UniProt Q96EY7)
inactive: erlotinib 0.014 | [1] -0.055 | [2] 0.075 | [3] 0.045 | [4] -0.039 | [5] -0.001 | [6] -0.044 | [7] -0.005 | [8] 0.019 | IRAK-1-4 Inhibitor I 0.004

PTPN23 (UniProt Q9H3S7)
inactive: erlotinib 0.017 | [1] -0.029 | [2] 0.016 | [3] -0.01 | [4] -0.023 | [5] 0.008 | [6] -0.028 | [7] -0.013 | [8] -0.003 | IRAK-1-4 Inhibitor I -0.004

PRPS1 (UniProt B1ALA9)
inactive: erlotinib -0.001 | [1] 0.039 | [2] 0.019 | [3] -0.037 | [4] 0.043 | [5] -0.003 | [6] 0.028 | [7] -0.05 | [8] 0.003 | IRAK-1-4 Inhibitor I 0.015

PSPH (UniProt P78330)
inactive: erlotinib -0.014 | [1] -0.051 | [2] 0.027 | [3] -0.007 | [4] 0.011 | [5] -0.003 | [6] -0.011 | [7] 0.013 | [8] 0.015 | IRAK-1-4 Inhibitor I 0.029

PSMA4 (UniProt P25789)
inactive: erlotinib 0.002 | [1] -0.037 | [2] 0.016 | [3] 0.025 | [4] -0.003 | [5] 0.02 | [6] 0.003 | [7] -0.006 | [8] 0 | IRAK-1-4 Inhibitor I 0.003

PSPC1 (UniProt Q8WXF1)
inactive: erlotinib -0.018 | [1] -0.053 | [2] 0.019 | [3] 0.017 | [4] -0.004 | [5] -0.001 | [6] 0.01 | [7] -0.016 | [8] -0.028 | IRAK-1-4 Inhibitor I 0

PTGS1 isoform 6 (UniProt P23219)
inactive: erlotinib -0.044 | [1] 0.118 | [2] 0.033 | [3] -0.105 | [4] -0.005 | [5] 0.086 | [6] -0.03 | [7] 0.008 | [8] -0.025 | IRAK-1-4 Inhibitor I 0.061

PTPN2 (UniProt P17706)
inactive: erlotinib 0.028 | [1] 0.119 | [2] -0.005 | [3] 0.006 | [4] 0.019 | [5] -0.045 | [6] -0.033 | [7] 0 | [8] 0.046 | IRAK-1-4 Inhibitor I -0.017

PSMC6 (UniProt P62333)
inactive: erlotinib -0.012 | [1] 0.013 | [2] -0.001 | [3] -0.004 | [4] -0.026 | [5] 0.011 | [6] -0.029 | [7] 0.017 | [8] 0.008 | IRAK-1-4 Inhibitor I -0.006

PSMD4 (UniProt P55036)
inactive: erlotinib 0.001 | [1] -0.017 | [2] -0.003 | [3] 0.01 | [4] -0.011 | [5] 0.007 | [6] -0.019 | [7] 0.008 | [8] 0.031 | IRAK-1-4 Inhibitor I -0.012

PRTFDC1 (UniProt Q9NRG1)
inactive: erlotinib -0.015 | [1] -0.007 | [2] 0.014 | [3] -0.025 | [4] -0.017 | [5] 0.032 | [6] 0.037 | [7] 0.024 | [8] 0.007 | IRAK-1-4 Inhibitor I 0.025

PRPSAP1 isoform 2 (UniProt Q14558)
inactive: erlotinib 0.006 | [1] -0.052 | [2] 0.039 | [3] 0.007 | [4] 0.01 | [5] 0.001 | [6] -0.043 | [7] -0.008 | [8] 0.021 | IRAK-1-4 Inhibitor I -0.001

PSMG3 (UniProt Q9BT73)
inactive: erlotinib 0.025 | [1] -0.046 | [2] 0.006 | [3] -0.038 | [4] 0 | [5] -0.002 | [6] 0.038 | [7] -0.005 | [8] -0.018 | IRAK-1-4 Inhibitor I 0.018

PSMA1 isoform 2 (UniProt P25786)
inactive: erlotinib -0.008 | [1] -0.109 | [2] 0.029 | [3] 0.001 | [4] -0.013 | [5] 0.009 | [6] 0.031 | [7] 0.002 | [8] 0.002 | IRAK-1-4 Inhibitor I 0.019

PSMC5 (UniProt P62195)
inactive: erlotinib 0.029 | [1] 0.006 | [2] 0.003 | [3] -0.003 | [4] 0 | [5] 0.005 | [6] 0.004 | [7] 0.04 | [8] -0.013 | IRAK-1-4 Inhibitor I -0.002

PSMG4 isoform 2 (UniProt Q5JS54)
inactive: erlotinib -0.043 | [1] 0.001 | [2] 0.033 | [3] -0.037 | [4] -0.014 | [5] -0.013 | [6] 0.042 | [7] -0.03 | [8] 0.044 | IRAK-1-4 Inhibitor I -0.028

PTGFRN (UniProt Q9P2B2)
inactive: erlotinib 0.016 | [1] -0.026 | [2] 0.04 | [3] 0.029 | [4] -0.027 | [5] 0.008 | [6] -0.01 | [7] 0.008 | [8] -0.01 | IRAK-1-4 Inhibitor I 0.011

PTPN11 isoform 1 (UniProt Q06124)
inactive: erlotinib -0.02 | [1] 0.018 | [2] 0.028 | [3] -0.014 | [4] -0.028 | [5] 0.005 | [6] -0.028 | [7] 0.001 | [8] 0.011 | IRAK-1-4 Inhibitor I -0.012
